Experimental data: PMC5322907
No constants are given. Whether binding was seen depends on the method and setting. Binding seen in cells or lysates may run through a third protein. Some entries that bind do so weakly or less than the wild type. Where a sequence is shown, tags or fusion partners need not be part of it.

T1: Cid12p-TAP (S. pombe) (UniProt O74518)
T1 sequence: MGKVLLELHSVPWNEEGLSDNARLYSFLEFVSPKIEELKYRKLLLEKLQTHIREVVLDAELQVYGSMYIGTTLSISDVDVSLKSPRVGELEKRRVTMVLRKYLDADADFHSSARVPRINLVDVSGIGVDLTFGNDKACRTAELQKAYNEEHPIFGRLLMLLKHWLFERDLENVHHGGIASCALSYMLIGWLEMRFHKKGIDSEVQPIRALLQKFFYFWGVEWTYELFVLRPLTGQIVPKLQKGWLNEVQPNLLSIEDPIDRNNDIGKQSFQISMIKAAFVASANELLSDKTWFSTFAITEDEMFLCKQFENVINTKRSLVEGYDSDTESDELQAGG

T2: spPrp16p-HA (S. pombe) (UniProt Q9P774)
T2 sequence: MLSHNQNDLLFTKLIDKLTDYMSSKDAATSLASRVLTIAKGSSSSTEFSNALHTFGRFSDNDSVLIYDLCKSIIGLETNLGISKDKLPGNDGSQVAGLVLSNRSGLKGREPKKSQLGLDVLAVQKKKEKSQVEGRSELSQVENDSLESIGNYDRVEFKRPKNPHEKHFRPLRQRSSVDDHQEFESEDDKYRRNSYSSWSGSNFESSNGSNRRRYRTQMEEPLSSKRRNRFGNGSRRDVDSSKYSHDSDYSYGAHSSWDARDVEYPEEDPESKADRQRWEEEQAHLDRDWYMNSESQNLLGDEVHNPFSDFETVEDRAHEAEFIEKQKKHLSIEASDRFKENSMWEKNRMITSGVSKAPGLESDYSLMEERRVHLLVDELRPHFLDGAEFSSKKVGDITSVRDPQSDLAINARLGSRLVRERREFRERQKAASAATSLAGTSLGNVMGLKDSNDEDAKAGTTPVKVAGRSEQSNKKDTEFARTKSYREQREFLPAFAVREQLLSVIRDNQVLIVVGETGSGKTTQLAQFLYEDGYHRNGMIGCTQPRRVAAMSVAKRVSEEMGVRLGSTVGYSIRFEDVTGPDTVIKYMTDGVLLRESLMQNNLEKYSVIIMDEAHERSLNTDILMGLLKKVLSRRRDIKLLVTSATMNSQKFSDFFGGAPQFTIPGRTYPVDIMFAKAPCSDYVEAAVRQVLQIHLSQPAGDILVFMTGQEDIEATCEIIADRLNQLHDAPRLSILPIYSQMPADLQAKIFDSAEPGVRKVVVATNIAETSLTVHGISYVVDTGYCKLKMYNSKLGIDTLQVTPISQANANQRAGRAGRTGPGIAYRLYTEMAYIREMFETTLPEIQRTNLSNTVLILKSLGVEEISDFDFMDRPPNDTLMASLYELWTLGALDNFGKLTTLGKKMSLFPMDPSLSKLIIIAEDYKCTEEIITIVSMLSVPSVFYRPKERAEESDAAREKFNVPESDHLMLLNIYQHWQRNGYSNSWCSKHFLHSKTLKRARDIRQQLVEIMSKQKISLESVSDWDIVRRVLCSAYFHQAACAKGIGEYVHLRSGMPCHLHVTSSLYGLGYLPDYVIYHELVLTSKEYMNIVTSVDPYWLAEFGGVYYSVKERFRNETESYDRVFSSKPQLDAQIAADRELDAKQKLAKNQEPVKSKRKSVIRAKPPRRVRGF


What was measured:
Cid12p-TAP (S. pombe) = target: T1, Cid12p-TAP (S. pombe); assay: co-IP; Cid12-TAP immunoprecipitated with IgG-Sepharose beads from extracts of S. pombe cells expressing spPrp16p-HA and Cid12-TAP; samples treated with or without RNase A; western blot with anti-HA and anti-protein A antibody; Sepharose beads with no antibody as negative control
spPrp16p-HA (S. pombe) = target: T2, spPrp16p-HA (S. pombe); assay: co-IP; spPrp16-HA immunoprecipitated with an anti-HA antibody from a S. pombe strain expressing spPrp16-HA and Chp1p-FLAG; western blot with anti-FLAG antibody

Binder | binding (Cid12p-TAP (S. pombe)) | binding (spPrp16p-HA (S. pombe))
spPrp16p-HA (protein, UniProt Q9P774 1-1173) MLSHNQNDLLFTKLIDKLTDYMSSKDAATSLASRVLTIAKGSSSSTEFSNALHTFGRFSDNDSVLIYDLCKSIIGLETNLGISKDKLPGNDGSQVAGLVLSNRSGLKGREPKKSQLGLDVLAVQKKKEKSQVEGRSELSQVENDSLESIGNYDRVEFKRPKNPHEKHFRPLRQRSSVDDHQEFESEDDKYRRNSYSSWSGSNFESSNGSNRRRYRTQMEEPLSSKRRNRFGNGSRRDVDSSKYSHDSDYSYGAHSSWDARDVEYPEEDPESKADRQRWEEEQAHLDRDWYMNSESQNLLGDEVHNPFSDFETVEDRAHEAEFIEKQKKHLSIEASDRFKENSMWEKNRMITSGVSKAPGLESDYSLMEERRVHLLVDELRPHFLDGAEFSSKKVGDITSVRDPQSDLAINARLGSRLVRERREFRERQKAASAATSLAGTSLGNVMGLKDSNDEDAKAGTTPVKVAGRSEQSNKKDTEFARTKSYREQREFLPAFAVREQLLSVIRDNQVLIVVGETGSGKTTQLAQFLYEDGYHRNGMIGCTQPRRVAAMSVAKRVSEEMGVRLGSTVGYSIRFEDVTGPDTVIKYMTDGVLLRESLMQNNLEKYSVIIMDEAHERSLNTDILMGLLKKVLSRRRDIKLLVTSATMNSQKFSDFFGGAPQFTIPGRTYPVDIMFAKAPCSDYVEAAVRQVLQIHLSQPAGDILVFMTGQEDIEATCEIIADRLNQLHDAPRLSILPIYSQMPADLQAKIFDSAEPGVRKVVVATNIAETSLTVHGISYVVDTGYCKLKMYNSKLGIDTLQVTPISQANANQRAGRAGRTGPGIAYRLYTEMAYIREMFETTLPEIQRTNLSNTVLILKSLGVEEISDFDFMDRPPNDTLMASLYELWTLGALDNFGKLTTLGKKMSLFPMDPSLSKLIIIAEDYKCTEEIITIVSMLSVPSVFYRPKERAEESDAAREKFNVPESDHLMLLNIYQHWQRNGYSNSWCSKHFLHSKTLKRARDIRQQLVEIMSKQKISLESVSDWDIVRRVLCSAYFHQAACAKGIGEYVHLRSGMPCHLHVTSSLYGLGYLPDYVIYHELVLTSKEYMNIVTSVDPYWLAEFGGVYYSVKERFRNETESYDRVFSSKPQLDAQIAADRELDAKQKLAKNQEPVKSKRKSVIRAKPPRRVRGF | binds | 
Chp1p-FLAG (protein, UniProt Q10103 1-960) MVSVKPLPDIDSNEGETDADVYEVEDILADRVNKNGINEYYIKWAGYDWYDNTWEPEQNLFGAEKVLKKWKKRKKLIAKGLLEPFDAEDNEAKKMKREKEILRQQRQKRKSELTQLSQKVKEKFKKMRKKPARRIVTIANDEEEEDDQTMDEDAFERKSMQGELKERNLTDKTSTLSTSFGETSPDVNPFYLSEWPTVTDSILLSKSLSSDAIPLKNGEIKSTMLMPSDSDNSVPGIQNSNNLENTGAFVENANSPQSNTPLSTFRHSSPLSLSPVITSDNDVANSLFFSNSTPLPSSLKIKKEAPKLETHTILVSDNSGSLTKQDILSYFAFIKGNIEVFFLKSPKKDKVCNMAYIQFDSIEQAKLAYDKGHPSWHVTLVKGKISTDMEECKVSKSILKTTPSKKANARSVSFTQTTTDTLSESEKFASNVDLDENFDFNVNVTNEDAKQLKKSVIGSSWTTVNNDWNSVSKSDQTFENDGASKVVPAGNITLNSDNSLHHSISESEDLSSASTLSDYFRFVLRVGKSLYYAGELSFDISKLKAETEHQQLLRSLVSCKQVDVLRFVTSQYLEVFGTCLTKVLSGSLCIRSDVDMTHFKNILNRGNGAGIVLGSNYTLLLFTEDNNALMNLYDCQGQSNSPFWMVIFEPLESILVEWSAKNLRPKKPYHKSQSYLSYLLQLGHIDLHKIGAFQATQILIVSKQPSPEAEELEDTFREAAIPTFRGLEIPESLFLSQNVFVFLNVSLEDDFDQLQFLTLAKRKSCKFFLFGLSLPLKSPNDSHVGTDFKKNNEPLDKLTYSQYLRPMFPKGGVVSVTLSALIKTPRLLELISPFLEIKKDSWILILPPSIVDMVKSYFVTNNPDKSLLEIQNLLNTLQRYLTNPALKNVTLYQDWDIVIDDSADVSLASTLQLYQKKNYDKYRRFVLIHELKNELTPVNGLDIVDYDEFKETFMRAIGLK |  | no binding
